Results from patent US20170335310A1.
No constants are given. Whether binding was seen depends on the method and setting. Some binding calls cover weakened binding; strength is not graded here.

The chains behind the UniProt entries cited, without tags or fusion partners. Where a name states a change or a piece, a line headed by the entry shows the natural chain unless it says otherwise. Residues count along the entry.
UniProt P01024: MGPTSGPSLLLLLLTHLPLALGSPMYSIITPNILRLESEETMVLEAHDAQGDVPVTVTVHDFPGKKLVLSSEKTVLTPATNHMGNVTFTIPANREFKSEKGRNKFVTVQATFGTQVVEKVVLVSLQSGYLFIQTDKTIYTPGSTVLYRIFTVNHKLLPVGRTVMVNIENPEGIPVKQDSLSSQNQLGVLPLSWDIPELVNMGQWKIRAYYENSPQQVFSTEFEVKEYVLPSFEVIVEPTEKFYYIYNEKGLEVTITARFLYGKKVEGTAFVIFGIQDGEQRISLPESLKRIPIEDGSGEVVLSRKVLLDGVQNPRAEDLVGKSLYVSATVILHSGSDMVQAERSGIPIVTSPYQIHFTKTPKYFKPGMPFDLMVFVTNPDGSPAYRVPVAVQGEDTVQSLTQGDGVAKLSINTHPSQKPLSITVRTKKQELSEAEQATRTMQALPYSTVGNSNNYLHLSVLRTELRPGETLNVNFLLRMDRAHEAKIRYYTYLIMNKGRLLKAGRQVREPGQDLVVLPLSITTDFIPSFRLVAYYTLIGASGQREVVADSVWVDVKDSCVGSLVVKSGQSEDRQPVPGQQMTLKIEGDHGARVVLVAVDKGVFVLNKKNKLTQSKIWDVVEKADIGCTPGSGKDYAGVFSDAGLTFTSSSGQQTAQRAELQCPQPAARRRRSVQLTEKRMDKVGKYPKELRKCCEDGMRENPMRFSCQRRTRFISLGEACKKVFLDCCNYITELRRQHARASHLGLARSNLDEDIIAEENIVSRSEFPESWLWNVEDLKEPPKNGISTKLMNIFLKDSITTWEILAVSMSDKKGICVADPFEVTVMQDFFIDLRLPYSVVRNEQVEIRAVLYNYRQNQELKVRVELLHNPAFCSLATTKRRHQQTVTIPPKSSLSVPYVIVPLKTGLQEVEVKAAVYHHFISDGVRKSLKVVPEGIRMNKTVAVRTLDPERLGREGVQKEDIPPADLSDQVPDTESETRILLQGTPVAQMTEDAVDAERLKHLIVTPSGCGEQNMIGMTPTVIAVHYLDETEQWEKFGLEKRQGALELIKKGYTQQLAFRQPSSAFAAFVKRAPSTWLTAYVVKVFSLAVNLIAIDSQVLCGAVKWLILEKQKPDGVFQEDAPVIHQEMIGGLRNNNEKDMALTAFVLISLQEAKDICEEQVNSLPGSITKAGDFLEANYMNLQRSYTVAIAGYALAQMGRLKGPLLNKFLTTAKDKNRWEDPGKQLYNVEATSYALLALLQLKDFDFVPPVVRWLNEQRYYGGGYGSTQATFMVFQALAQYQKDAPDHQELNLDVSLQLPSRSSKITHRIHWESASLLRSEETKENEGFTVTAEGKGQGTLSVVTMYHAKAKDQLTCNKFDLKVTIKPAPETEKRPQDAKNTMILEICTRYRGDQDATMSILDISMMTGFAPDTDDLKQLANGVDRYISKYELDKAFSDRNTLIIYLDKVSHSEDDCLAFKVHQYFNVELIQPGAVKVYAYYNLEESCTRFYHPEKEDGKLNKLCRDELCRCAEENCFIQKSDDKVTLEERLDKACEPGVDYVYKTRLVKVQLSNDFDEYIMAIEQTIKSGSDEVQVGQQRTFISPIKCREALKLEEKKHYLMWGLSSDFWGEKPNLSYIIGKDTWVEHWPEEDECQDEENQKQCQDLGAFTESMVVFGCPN
UniProt P08603, residues 19-1231: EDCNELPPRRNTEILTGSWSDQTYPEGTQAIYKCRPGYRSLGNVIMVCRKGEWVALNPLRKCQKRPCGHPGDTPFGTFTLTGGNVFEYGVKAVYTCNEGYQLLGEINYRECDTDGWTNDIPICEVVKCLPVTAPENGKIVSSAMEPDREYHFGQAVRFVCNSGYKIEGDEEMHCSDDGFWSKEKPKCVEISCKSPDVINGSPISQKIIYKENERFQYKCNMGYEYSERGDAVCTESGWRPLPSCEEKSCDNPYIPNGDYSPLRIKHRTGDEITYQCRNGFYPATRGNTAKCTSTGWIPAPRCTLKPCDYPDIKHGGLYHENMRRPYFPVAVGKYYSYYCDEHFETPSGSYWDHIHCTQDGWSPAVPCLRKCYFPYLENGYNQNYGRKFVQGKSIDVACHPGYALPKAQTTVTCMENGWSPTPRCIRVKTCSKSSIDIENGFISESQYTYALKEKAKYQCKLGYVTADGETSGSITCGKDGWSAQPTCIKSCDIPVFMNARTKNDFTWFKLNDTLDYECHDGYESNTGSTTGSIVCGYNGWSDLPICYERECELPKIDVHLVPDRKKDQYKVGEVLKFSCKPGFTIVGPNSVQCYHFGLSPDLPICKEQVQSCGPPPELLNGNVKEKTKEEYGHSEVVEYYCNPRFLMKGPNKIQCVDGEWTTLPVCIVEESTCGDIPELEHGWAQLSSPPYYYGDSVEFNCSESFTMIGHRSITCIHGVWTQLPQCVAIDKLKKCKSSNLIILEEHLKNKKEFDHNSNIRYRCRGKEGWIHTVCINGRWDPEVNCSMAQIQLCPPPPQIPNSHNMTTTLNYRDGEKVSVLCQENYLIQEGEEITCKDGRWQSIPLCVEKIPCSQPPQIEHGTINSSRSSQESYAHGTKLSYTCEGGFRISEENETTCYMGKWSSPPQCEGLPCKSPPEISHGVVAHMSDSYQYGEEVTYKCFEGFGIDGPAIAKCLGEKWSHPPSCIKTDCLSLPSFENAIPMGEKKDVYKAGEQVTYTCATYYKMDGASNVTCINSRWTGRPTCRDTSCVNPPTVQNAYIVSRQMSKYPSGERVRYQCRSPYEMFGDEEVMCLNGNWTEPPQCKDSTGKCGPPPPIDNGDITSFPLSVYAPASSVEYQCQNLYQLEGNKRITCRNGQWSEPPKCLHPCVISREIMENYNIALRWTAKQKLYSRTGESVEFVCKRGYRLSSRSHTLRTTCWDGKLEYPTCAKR

How the values were obtained:
C3b [1] = target: C3b (UniProt P01024); experiment: SPR steady-state response against plasma-purified FH concentration on two flow cells with 1540 and 3030 RU of immobilised C3b [iv]
C3b [2] = target: C3b (UniProt P01024); experiment: SPR (Biacore), plasma-purified FH concentration series (5.4, 1.0, 0.5, 0.1 uM per legend) flowed over 1540 RU of C3b amine-coupled to a CM5 chip [ii]

## plasma-purified human factor H (from UniProt P08603 19-1231)
C3b [1]
  binding: binds
C3b [2]
  binding: binds
